Paper PMC11361582
No constants are given. Whether binding was seen depends on the method and setting. In cells and extracts the contact can be indirect. A result given as binding can be weak or reduced; the word gives no strength. Sequences can lack the tags named with a protein.

Key:
Test in all cases: pull-down; GST-tagged bait and N-terminally 6xHis-tagged prey co-expressed in one E. coli BL21 DE3 strain; lysate (0.1 x PBS, 50 mM EDTA, 1 mM DTT, about 1% Triton X-100; ATP and MgSO4 added, 37°C 10 min) bound to glutathione agarose 15 min at room temperature; washed 8 times with 50 mM Tris-Cl, 300 mM NaCl, 50 mM EDTA, pH 7.5 and twice with PBS; bound beads analysed by immunoblot with anti-GST and anti-His antibodies
[1] = target: GST-tagged BbDUF490 Segment 3 (TamB aa 1335-1443) (Borreliella burgdorferi B31)
[2] = target: GST-tagged BbDUF490 Segment 1 (TamB aa 1117-1221) (Borreliella burgdorferi B31)
[3] = target: GST-tagged BbDUF490 Segment 2 (TamB aa 1222-1334) (Borreliella burgdorferi B31)
[4] = target: GST-tagged B. burgdorferi TamB DUF490 domain (aa 1117-1443) (Borreliella burgdorferi B31)

Measured: binding

B1: 6xHis-tagged B. burgdorferi BamB (protein, UniProt O51059 26-349)
chain: SSESIFSQLGNLQKIKHEYNILGSSSPRGISLVGETLYIAAMHLFKKENGKIEKIDLSNSYEFINDIVNISGKTYLLAQNKEEELEVCELNGKDWTLKFKKPLKAYKFLKSVGRDGVKEAYILAIDKNNREKIFDLQGSDKTPPQATENDKFYQISNEENLITGNSLKIWQMNNNTYTNIDYQQAKEIMPIIKTSIRGSSEVLVMTGGYNNLDTKFKVYSNTNNYTTPIFIQDEVGEFSSYFAREFNDAILIGSNNGFAEFTKNKEGIFALRAPSKSVEPGAYNGSQLSKTGLNDIIPVSNNTIYILTQGKGLWKLENRKLTKE
binds: [1] | [2] | [3] | [4]
